Test results from PubChem BioAssay AID540256 (National Center for Advancing Translational Sciences (NCATS), 2011).
“And” between values parts separate entries of the source, which are not always exact repeats. Equal entries are not always repeated. The whole screen tested about 300,000 compounds, of which about 3,700 (1.2%) were called active. Inconclusive results, whose numbers are uncertain, are shown with a selection of clear calls. The call rests on the fitted dose curve; tested in HEK293 cells. Potencies beside an inconclusive call are fits to weak or partial responses and may not hold up.

assay: qHTS for Inhibitors of binding or entry into cells for Lassa Virus; conditions: Lassa virus pseudotype entry inhibition, cell reporter; activity change, negative = inhibition: at 37.9 µM (top of the series) unless noted; further: nearly all actives have a fitted effect of over 50% in size
On the % scale 0 is the no-effect control and ±100 the full control effect; potency means the concentration at half of the fitted maximal effect.

SMILES	Potency	activity change, negative = inhibition
CCCNC(=O)c1ccc(COc2ccc(C(C)(C)C)cc2)o1	inconclusive: 0.631 µM [inhibitor, full curve, poor fit]	–
O=C(NCCCN1CCCC1)c1ccc(CSCc2cccc(Cl)c2)o1	–	inactive: -3.78%
COc1ccc(C(=O)c2ccc(N(C)C)cc2)c2ccccc12	inconclusive: 0.73 µM [inhibitor, full curve, poor fit]	–
COc1ccc(NC(=O)c2ccco2)cc1NC(=O)c1ccc(OC(C)C)cc1	–	inactive: -26.3% [at 46.1 µM]
O=[N+]([O-])/C=C/c1ccc2c(c1)OCO2	active: 3.26 µM	–
Cc1cc(C)cc(C(=O)NCCCN2CCOCC2)c1	inconclusive: 3.16 µM [inhibitor, single point]	–
O=C(NCCN1CCOCC1)C(=O)NCC1OCCN1S(=O)(=O)c1ccc(F)cc1 (stereo unspecified)	–	inactive: 11.3%
Cc1ccc(OC(F)F)c(NC(=O)Nc2cccc(C(F)(F)F)c2)c1	inconclusive: 18.3 µM [inhibitor, single point]	–
Fc1cccc2sc(Nc3nnc(-c4ccccc4)o3)nc12	inconclusive: 12.6 µM [inhibitor, single point]	–
N#CC1(C#N)CC(C=O)=C(N)C1(C#N)CC(=O)C12CC3CC(CC(C3)C1)C2 (stereo unspecified)	inconclusive: 10 µM [inhibitor, partial curve]	–
O=C1NCCN(Cc2ccc(Cl)c(F)c2)C1CC(=O)N1CCCO1 (stereo unspecified)	–	inactive: -2.01% [at 46.1 µM]
O=C(/C=C/c1ccco1)NC1CCCC1	–	inactive: -24.4%
CN(C)c1ccc(CNC(=O)C2CCN(C(=O)c3ccc(-n4ccc5ccccc54)s3)CC2)cc1	inconclusive: 3.98 µM [inhibitor, partial curve, poor fit]	–
COC(=O)c1ccc(OCC(O)CN2CCc3cc(OC)c(OC)cc3C2c2ccccc2)cc1 (stereo unspecified)	inconclusive: 35.5 µM [inhibitor, single point]	–
Nc1c(C(=O)Nc2cccc(C(=O)O)c2)sc2nc3c(cc12)CCCC3	active: 3.16 µM	–
O=c1[nH]c(CCl)nc2cc(-c3ccc(F)cc3)sc12	inconclusive: 35.5 µM [inhibitor, single point]	–
Cc1n[nH]c(=O)nc1N/N=C/c1ccco1	inconclusive: 7.08 µM [activator, partial curve]	–
CS(=O)(=O)Oc1ccc(/C=N/NC(=O)c2ccncc2)cc1	inconclusive: 2.06 µM [inhibitor, partial curve, poor fit]	–
O=C(c1ccc(S(=O)(=O)Nc2ccccc2Cl)cc1)N1CCOCC1	inconclusive: 3.55 µM [inhibitor, full curve, poor fit]	–
CCCCNC(=O)CC1SC(=NCC)N(CC)C1=O (stereo unspecified)	inconclusive: 3.66 µM [inhibitor, partial curve, poor fit]	–
COc1cc([N+](=O)[O-])ccc1NC(=O)N1CCC2(CC1)Nc1cc(F)ccc1-n1cccc12	–	inactive: -2.11% [at 46.1 µM]
CC1CCN(c2nc3c(S(=O)(=O)c4cccc(Cl)c4)nnn3c3ccsc23)CC1	–	inactive: 12.1% [at 46.1 µM]
Cc1ccc(C2C(=O)N(C3CCCCCC3)CC(=O)N2CCC2=CCCCC2)cc1 (stereo unspecified)	inconclusive: 0.631 µM [inhibitor, full curve, poor fit]	–
CN(c1cc(=O)n2ccccc2n1)C1CCCCC1	–	inactive: 12.7%

Arranged by heavy-atom count (descending): 3 of the compounds above
SMILES	Potency	activity change, negative = inhibition
COc1cc([N+](=O)[O-])ccc1NC(=O)N1CCC2(CC1)Nc1cc(F)ccc1-n1cccc12	–	inactive: -2.11% [at 46.1 µM]
O=C(NCCCN1CCCC1)c1ccc(CSCc2cccc(Cl)c2)o1	–	inactive: -3.78%
O=c1[nH]c(CCl)nc2cc(-c3ccc(F)cc3)sc12	inconclusive: 35.5 µM [inhibitor, single point]	–

Additional structures:

SMILES	Potency	activity change, negative = inhibition
Cc1ccc(C)n1-c1ccc(-n2cnnn2)cc1	–	inactive: 0.478%
COc1ccc(C2(c3ccc(OC)cc3)NC(=O)N(CC(=O)Nc3ccccc3C)C2=O)cc1	inconclusive: 35.5 µM [inhibitor, single point]	–
CCOc1ccc(C(=O)NCC2CCCN2S(=O)(=O)c2cccs2)cc1 (stereo unspecified)	–	inactive: 1.16% [at 46.1 µM]
CCCOCC1CC2(SC(=Nc3ccc(C)cc3)NC2=O)C(=O)O1 (stereo unspecified)	inconclusive: 15.8 µM [inhibitor, single point]	–
COc1ccc(/C=N/Nc2nc(N3CCCC3)nc(N3CCCC3)n2)cc1O	–	inactive: -6.28%
COc1ccc(C(C)C)cc1S(=O)(=O)N1CCN(C)CC1	–	inactive: 8.82%
COc1ccc(NC2=NCC(=O)N2c2ccccc2F)c(OC)c1	–	inactive: 18.9%
CNC(=O)NC(=O)C(C)OC(=O)c1cc2c(s1)CCCCC2 (stereo unspecified)	inconclusive: 0.398 µM [inhibitor, partial curve, poor fit]	–
Cc1ccc(C(=O)CCC(=O)Nc2cccc(C(F)(F)F)c2)cc1C	–	inactive: -15.1%
COc1cc2c(cc1OC)-c1c(OC)c(OC)c(OC)c3ccnc(c13)C2=O	inconclusive: 0.259 µM [inhibitor, full curve]	–
CSc1ccccc1C(=O)N1CCc2ccccc2C1	–	inactive: 19.8%
Cc1ccc(NC(=O)N2CCC(CN3CCCCC3)CC2)c(Cl)c1	–	inactive: 18.9% [at 46.1 µM]
O=C(CS(=O)(=O)c1ccccc1)N1CCCCC1	inconclusive: 12.6 µM [activator, single point]	–
Clc1ccc(-n2nnnc2-c2cnc3ccc(Cl)cc3c2-c2ccccc2)cc1	–	inactive: 4.9% [at 46.1 µM]
COc1ccc(NC(=O)c2cc([N+](=O)[O-])ccc2N2CCCCC2)cc1OC	inconclusive: 12.6 µM [inhibitor, partial curve, poor fit]	–
Cn1cc(CCNCc2cn[nH]c2-c2ccc(-c3ccccc3)cc2)cn1	inconclusive: 4.47 µM [activator, single point]	–
O=C1Nc2c(c(=O)[nH]c(=O)n2-c2ccc(F)cc2)C1(NS(=O)(=O)c1ccc(Cl)cc1)C(F)(F)F (stereo unspecified)	–	inactive: -1% [at 46.1 µM]
CCOC(=O)c1sc(NC(=O)Nc2ccc(Cl)cc2)cc1C	inconclusive: 20 µM [inhibitor, single point]	–
CCOC(=O)c1c(NC(=O)COc2cccc3c2CCN(CC)C3=O)sc2c1CCC2	–	inactive: -13.9%
CNC(=O)c1cc(Nc2nnc(C)c3ccccc23)ccc1OC	–	inactive: 12.5%
CCOc1c(C(N)=O)c(-c2ccccc2)c2c(=O)[nH]c3ccccc3n12	–	inactive: -1.41%
O=C(Nc1cccc2ccccc12)C12CC3CC(C1)CC(n1cnc([N+](=O)[O-])n1)(C3)C2	inconclusive: 4.47 µM [inhibitor, partial curve, poor fit]	–
CCCC(=O)Nc1ccc(S(=O)(=O)N2CCCC2)cc1	–	inactive: -15.8%
COCCN1CCN(C(=O)c2ccc3oc(CCc4ccccc4)nc3c2)CC1	–	inconclusive: 12.8% [activator]

2 compounds picked at random from the list so far, as already listed:
SMILES	Potency	activity change, negative = inhibition
COc1ccc(/C=N/Nc2nc(N3CCCC3)nc(N3CCCC3)n2)cc1O	–	inactive: -6.28%
CSc1ccccc1C(=O)N1CCc2ccccc2C1	–	inactive: 19.8%

(further entries)

SMILES	Potency	activity change, negative = inhibition
CCCOc1nc2ccccc2cc1/C=C/C(=O)O	–	inactive: 6.38% [at 46.1 µM]
Nc1c(S(=O)(=O)c2ccccc2)c2nc3ccccc3nc2n1Cc1ccco1	inconclusive: 2.06 µM [activator, partial curve, poor fit]	–
COC(=O)c1c(-c2cccnc2)csc1NC(=O)c1cc(C)on1	inconclusive: 6.51 µM [activator, single point]	–
COc1ccc(C=C(C#N)c2ccc(OC)cc2)cc1	inconclusive: 15.8 µM [inhibitor, partial curve, poor fit]	–
O=C1OCC2=C1C(c1ccccc1)CC(=O)N2c1ccc(F)cc1 (stereo unspecified)	inconclusive: 1.41 µM [activator, full curve, poor fit]	–
Cn1c(=O)c2c(-c3ccccc3)n(-c3ccccc3O)cc2n(C)c1=O	inconclusive: 1.64 µM [inhibitor, full curve, poor fit]	–
CCC(C)c1ccccc1NC(=O)COC(=O)c1ccc2[nH]c3c(c2c1)CCCC3 (stereo unspecified)	inconclusive: 13 µM [inhibitor, partial curve]	–
COc1ccc(CNS(=O)(=O)c2csc(C(N)=O)c2)cc1OC	inconclusive: 35.5 µM [activator, single point] and inconclusive: 22.4 µM [activator, single point]	–
Cc1cn2c(=O)cc(COC(=O)c3ccc(NC(=O)c4ccc(C(C)(C)C)cc4)cc3)nc2s1	inconclusive: 4.47 µM [activator, full curve, poor fit]	–
O=C(OCC#CCSc1nnc(-c2ccc([N+](=O)[O-])cc2)o1)c1cccs1	inconclusive: 0.631 µM [activator, partial curve, poor fit]	–
CCOC(=O)c1ccc(NC(=O)C(CC)Sc2nncn3c2cc2oc(C)cc23)cc1 (stereo unspecified)	–	inactive: -1.21% [at 46.1 µM]
Cc1sc(NC(=O)c2ccco2)c(CN2CCN(c3ccccc3)CC2)c1C	inconclusive: 29.1 µM [inhibitor, single point]	–
CCCCCCn1c(N2CCN(c3ccccc3)CC2)nc2c1c(=O)n(C)c(=O)n2C	inconclusive: 10.3 µM [inhibitor, partial curve, poor fit]	–
COc1ccccc1NC(=O)NCC1CC1(Cl)Cl (stereo unspecified)	–	inactive: 16.5% [at 46.1 µM]
CCOc1cc(/C=N/NC(=O)N/N=C/c2ccc(O)c(OCC)c2)ccc1O	inconclusive: 8.91 µM [inhibitor, partial curve, poor fit]	–
CSc1cccc(NC(=S)N2CCC(N(C)C3CCCC3)CC2)c1	inconclusive: 35.5 µM [inhibitor, single point]	–
CCOC(=O)C1CCC(CN(Cc2ccc(OC)cc2)S(=O)(=O)c2ccc(F)c(C(=O)Nc3cc(Cl)ccc3OC)c2)CC1 (stereo unspecified)	–	inactive: 14.9% [at 46.1 µM]
COc1ccc(CNC(=O)CN(C)S(=O)(=O)c2ccc3[nH]c4c(c3c2)CCCC4)cc1	inconclusive: 28.2 µM [inhibitor, partial curve, poor fit]	–
COc1ccccc1CNC(=O)CCNC(=O)Cn1ccc2ccccc2c1=O	inconclusive: 0.103 µM [inhibitor, full curve, poor fit]	–
COc1ccc(-c2nc3sc(CCNC(=O)c4ccc(C(C)(C)C)cc4)c(C)n3n2)cc1	–	inactive: 6.81% [at 46.1 µM]
CCC(C)Cn1c(C(C)O)nc2ccccc21 (stereo unspecified)	inconclusive: 0.794 µM [activator, partial curve, poor fit]	–
CCOC(=O)c1c(C)[nH]c(C(=O)CN2C(=O)NC(C)(c3ccc4ccccc4c3)C2=O)c1C (stereo unspecified)	–	inactive: -26.6% [at 14.3 µM]
COc1cc2c(cc1OC)C(C)N(C(=O)CCc1c[nH]c3ccccc13)CC2 (stereo unspecified)	inconclusive: 35.5 µM [inhibitor, single point]	–
